In patent publication KR20210090503A:
Results are given in words; binding and its absence hold for the method and conditions named. Some results given as binding are weak or reduced against the parent protein; the word gives no strength.

Amino acid sequences for entries named in this document (tags omitted). Residues count along the entry.
UniProt P37173, residues 23-166: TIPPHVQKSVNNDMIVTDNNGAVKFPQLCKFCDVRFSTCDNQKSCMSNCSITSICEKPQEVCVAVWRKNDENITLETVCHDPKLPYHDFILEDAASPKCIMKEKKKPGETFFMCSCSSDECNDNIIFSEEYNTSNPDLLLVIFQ

What was measured:
[1] = molecular target: hTGFβⅡECD/Fc (R&D systems, Cat. No. 341-BR-050) (human) (UniProt P37173); assay: ELISA (legend of Fig. 6)
[2] = molecular target: hTGFβⅡECD/Fc (R&D systems, Cat. No. 341-BR-050) (human) (UniProt P37173); assay: ELISA, purified scFv on coated TGFβRII ECD/Fc, anti-HA-HRP (Fig. 4)
[3] = molecular target: hTGFβⅡECD/Fc (R&D systems, Cat. No. 341-BR-050) (human) (UniProt P37173); assay: monoclonal ELISA, periplasmic scFv on coated TGFβRII ECD/Fc, anti-HA-HRP
[4] = molecular target: hTGFβⅡECD/Fc (R&D systems, Cat. No. 341-BR-050) (human) (UniProt P37173); assay: competition ELISA, TGFβ ligand coated, scFv with TGFβRII ECD/Fc (Fig. 5)
[5] = molecular target: hTGFβⅡECD/Fc (R&D systems, Cat. No. 341-BR-050) (human) (UniProt P37173); assay: ELISA, purified scFv on coated TGFβRII ECD/Fc, anti-HA-HRP (Fig. 6)

Measured: binding

B1: TBR2-1 scFv (scFv, not shown: small tags and cut ends)
scFv: EVQLLESGGGLVQPGGSLRLSCAASGFTFSSYSMSWVRQAPGKGLEWVSWISYNGGSKYYADSVKGRFTISRDNSKNTLYLQMNSLRAEDTAVYYCARRIAAFDYWGQGTLVTVSSGGGGSGGGGSGGGGSQSVLTQPPSASGTPGQRVTISCTGSSSNIGSNAVSWYQQLPGTAPKLLIYANSHRPSGVPDRFSGSKSGTSASLAISGLRSEDEADYYCGTWDSSLSGYVFGGGTKLTVLG
not listed: [5]
binds: all other assays above

B2: TBR2-2 scFv (scFv, not shown: small tags and cut ends)
scFv: EVQLLESGGGLVQPGGSLRLSCAASGFTFSSYSMSWVRQAPGKGLEWVSWISYNDRSVYYADSVKGRFTISRDNSKNTLYLQMNSLRAEDTAVYYCARRIAAFDYWGQGTLVTVSSGGGGSGGGGSGGGGSQSVLTQPPSASGTPGQRVTISCTGSSSNIGSNAVSWYQQLPGTAPKLLIYANSHRPSGVPDRFSGSKSGTSASLAISGLRSEDEADYYCGTWDSSLSGYVFGGGTKLTVLG
binds: all assays above

B3: TBR2-3 scFv (scFv, not shown: small tags and cut ends)
scFv: EVQLLESGGGLVQPGGPLRLSCAASGFTFSDYSMSWVRQAPGKGLEWVSSIYYDSGSIYYADSVKGRFTISRDNSKNTLYLQMNSLRAEDTAVYYCARRVTAFDYWGQGTLVTVSSGGGGSGGGGSGGGGSQSVLTQPPSASGTPGQRVTISCTGSSSNIGNNSVSWYQQLPGTAPKLLIYANSHRPSGVPDRFSGSKSGTSASLAISGLRSEDEADYYCGTWDSSLSGYVFGGGTKLTVLG
binds: all assays above
